# Results taken from PubChem BioAssay AID1347075 (National Center for Advancing Translational Sciences (NCATS), 2019).
# Screen size: about 400,000 compounds; about 5,500 (1.4%) were called active. The shares of active, inactive and inconclusive entries below differ from those in the screen. Calls come from the whole dose curve; as a rule, active = well fitted cell-killing curve with a large enough effect; inconclusive = small, poorly fitted or top-dose-only effect, or effect the other way; inactive = flat fitted curve, though single readings scatter. Potencies beside an inconclusive call are fits to weak or partial responses and may not hold up.
# Test: qHTS assay for MDR1-selective chemotherapeutics: Primary screen using the parental adenocarcinoma cell KB-3-1; note: nearly all actives have a fitted effect of over 60% in size
# Details: KB-3-1 viability, CellTiter-Glo ATP luminescence, 72 h; activity change, negative = cytotoxic: at 46.1 µM (top of the series)
# How it was run: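 Using CellTiter-Glo luminescence, growth of non-resistant KB-3-1 adenocarcinoma cells is assessed 72 h after pin-tool compound addition at 37 °C. Normalized responses across the concentration series yield fitted curves.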
# % is set by controls: 0 for no effect and ±100 for the full control effect; potency is the fitted concentration of half-maximal effect.
Structure (SMILES),Potency,"activity change, negative = cytotoxic"
O=C(Nc1ccc(Oc2ccc(Cl)cc2)c(Cl)c1)c1cc(I)cc(I)c1O,"inconclusive: 29.1 µM [cytotoxic, single point]",
NC(=O)c1ccc(-n2nnnc2SCC(=O)Nc2ccccc2)cc1,,inactive: 6.23%
O=C(c1ccc(Oc2ccc(C(F)(F)F)cn2)cc1)N1CCN(c2ccccc2)CC1,"inconclusive: 18.4 µM [cytotoxic, partial curve]",
CN(CC(=O)Nc1ccc(OC(F)(F)F)cc1)C(=O)c1ccccc1SCC(=O)N1CCCC1,active: 16.4 µM,
O=C(OCc1nnc(-c2ccc([N+](=O)[O-])cc2)o1)c1ccc(F)c(S(=O)(=O)N2CCOCC2)c1,,inactive: -7.94%
Cc1ccc2c(cnn2C(=O)CCC(=O)NC2CCCCC2)c1,,inconclusive: 30.3%
O=C(Nc1cccc2c1CCCC2)c1cc(C2CCCCN2C(=O)c2cccs2)on1 (stereo not given),"inconclusive: 29.1 µM [cytotoxic, single point]",
COc1cccc(CNC(=O)C2CCCN(S(=O)(=O)N(C)c3ccc(F)cc3)C2)c1OC (stereo not given),"inconclusive: 20.6 µM [cytotoxic, single point]",
COc1ccc(OC(=O)N2C/C(=C/c3ccccc3)C(=O)/C(=C\c3ccccc3)C2)cc1,"inconclusive: 29.1 µM [cytotoxic, single point]",
CCc1n[nH]c(=S)n1/N=C/c1c[nH]c2ccc(Br)cc12,"inconclusive: 16.4 µM [cytotoxic, partial curve, poor fit]",
CC1=C(C(=O)N(C(C)C)C(C)C)CC(CC(=O)NC2CC2)C(=O)N1Cc1ccc(C(C)(C)C)cc1 (stereo not given),,inactive: 2.97%
COc1ccccc1C(=O)NCCC(=O)NC1CCCCCC1,,inactive: 18.7%
CNC(=O)/C(C#N)=C/c1c(F)cccc1Cl,"inconclusive: 32.6 µM [cytotoxic, single point]",
O=C(COc1ccccc1C(=O)Nc1ccccc1)Nc1ccccc1-c1ccccc1,"inconclusive: 23.1 µM [cytotoxic, single point]",
COc1ccccc1C1CC(c2ccccc2)=NN1C(=O)c1ccccc1 (stereo not given),"inconclusive: 29.1 µM [cytotoxic, single point]",
CCCCNc1c(-c2ccc(OC)c(SC(C)CC)c2)nc2cc(C)ccn12 (stereo not given),"inconclusive: 25.9 µM [cytotoxic, single point]",
Cc1ccc(Cl)cc1NC(=O)c1ccccc1OCC(=O)Nc1ccc(Cl)cc1,,inactive: 1.19%
Cc1[nH]c2ccccc2c1-c1csc(N)n1,,inactive: -5.66%
C#CCn1c(=NC(=O)c2ccc(S(=O)(=O)N3CCCc4ccccc43)cc2)sc2cc(S(N)(=O)=O)ccc21,,inconclusive: -8.41%
O=C(Nc1ccc2c(c1)CCCN2C(=O)c1cccs1)c1ccc(F)c(F)c1,"inconclusive: 18.4 µM [cytotoxic, single point]",
Oc1ccc(C(c2nnnn2CCc2ccccc2)N2CCN(c3nc4ccccc4s3)CC2)cc1 (stereo not given),"inconclusive: 16.4 µM [cytotoxic, partial curve, poor fit]",
C#Cc1ccc([C@H]2C=C(C(=O)Nc3ccccc3)O[C@@H](OCc3ccc(CO)cc3)C2)cc1,,inactive: 2.17%
Cc1nnc(SCC(=O)c2c(N)n(C3CC3)c(=O)[nH]c2=O)n1-c1ccccc1,"inconclusive: 29.1 µM [rising, single point]",
COc1ccc(C)cc1NC(=O)c1ccc(CN2CCc3ccccc3C2)cc1,,inactive: 4.89%

Structure (SMILES),Potency,"activity change, negative = cytotoxic"
CCN(CC(=O)Nc1c(F)cccc1F)C(=O)C1CCN(S(=O)(=O)c2ccc(C)cc2C)CC1,,inactive: -6.31%
NC(c1csc(Nc2nncc3ccccc23)n1)C1CCCCC1 (stereo not given),"inconclusive: 29.1 µM [cytotoxic, single point]",
CCOc1cc(/C=N/NC(=O)c2cccnc2)ccc1OCC(=O)N1CCOCC1,"inconclusive: 9.2 µM [rising, partial curve]",
O=C1CCC(C(=O)OCC(=O)N2N=C3/C(=C/c4ccccc4)CCCC3C2c2ccccc2)N1 (stereo not given),active: 20.6 µM,
COc1ccc(-c2nn(-c3ccccc3)cc2/C=N/Nc2ccccn2)cc1OC,"inconclusive: 29.1 µM [cytotoxic, single point]",
Nc1nc(-c2ccccc2)c(N=Nc2ccccc2Cl)s1,"inconclusive: 29.1 µM [cytotoxic, single point]",
Cc1ccc(S(=O)(=O)N2CCOCC2)cc1NC(=O)CN1CCN(C)CC1,,inactive: 11.4%
N#Cc1nc(-c2cccc3ccccc23)oc1NCCN1CCCCC1,,inconclusive: -13.7%
Cc1cccc(NC(=O)C2CC(=O)N(Cc3ccccc3)C2)n1 (stereo not given),"inconclusive: 29.1 µM [rising, single point]",
CCCC(=O)NC(c1cccs1)c1cc(Cl)c2cccnc2c1O (stereo not given),"inconclusive: 2.06 µM [cytotoxic, full curve, poor fit]",
O=C(NNc1c2ccccc2nc2ccccc12)c1ccccc1O,,inactive: -37.6%
Cn1nc(C(=O)NCC(c2cccs2)N2CCOCC2)c2ccccc2c1=O (stereo not given),"inconclusive: 23.1 µM [cytotoxic, single point]",
Cc1ccc(N=CC=C2OC(C)(C)C(C)(C)O2)cc1,,inconclusive: 35.1%
COc1ccc(N2CCN(S(=O)(=O)c3ccc4c(c3)C(C(C)C)C(=O)N4)CC2)cc1 (stereo not given),,inactive: 0%
Nc1nc(CCl)nc(Nc2cccc3ccccc23)n1,"inconclusive: 29.1 µM [cytotoxic, single point]",
COC(=O)CSc1nnc(COc2cccc3ccccc23)o1,,inactive: 12.9%
O=C1CSC(c2cn(-c3ccccc3)nc2-c2ccccc2)N1Cc1ccco1 (stereo not given),"inconclusive: 29.1 µM [cytotoxic, single point]",
CCCOc1ccc(C(=O)Nc2ccc(NC(=O)c3cccs3)cc2)cc1,,inactive: 3.68%
Cc1ccc(C)c(-n2[nH]c3c4c(ccc3c2=O)C(=O)c2ccccc2C4=O)c1,"inconclusive: 23.1 µM [cytotoxic, single point]",
Cc1ccc(NC(=O)C2c3ccccc3-c3ccccc32)cc1,,inactive: 0%
CCOC(=O)Oc1c(OC)cc(C(=O)O[C@@H]2C[C@@H]3CN4CCc5c([nH]c6cc(OC)ccc56)[C@H]4C[C@@H]3[C@H](C(=O)OC)[C@H]2OC)cc1OC,"inconclusive: 29.1 µM [cytotoxic, single point]",
Nc1ccc2nc3c(c(Cl)c2c1)CCCC3,"inconclusive: 29.1 µM [cytotoxic, single point]",
O=C(NCC(c1cccs1)N1CCOCC1)c1ccc(Br)o1 (stereo not given),"inconclusive: 20.6 µM [cytotoxic, single point]",
O=C(C[C@@H]1C=C[C@@H](NC(=O)Nc2cccc(F)c2)[C@@H](CO)O1)NCC1CCCCC1,,inactive: -8.58%

# In the list so far, these have a CF3 group.
Structure (SMILES),Potency,"activity change, negative = cytotoxic"
O=C(c1ccc(Oc2ccc(C(F)(F)F)cn2)cc1)N1CCN(c2ccccc2)CC1,"inconclusive: 18.4 µM [cytotoxic, partial curve]",
CN(CC(=O)Nc1ccc(OC(F)(F)F)cc1)C(=O)c1ccccc1SCC(=O)N1CCCC1,active: 16.4 µM,

# Further results:

Structure (SMILES),Potency,"activity change, negative = cytotoxic"
CCCOc1ccc(C(=O)NNC(=S)NC(=O)c2ccco2)cc1,active: 9.2 µM,
NC(Cc1ccccc1)c1csc(Nc2nccc(C(F)(F)F)n2)n1 (stereo not given),"inconclusive: 25.9 µM [cytotoxic, single point]",
CCc1c(C)c2ccc(O)c(CN3CCN(c4ccc(F)cc4)CC3)c2oc1=O,"inconclusive: 23.1 µM [cytotoxic, single point]",
CC(C)c1ccc(/C=C2\C(=N)N3N=C(CC(=O)N4CCCCC4)SC3=NC2=O)cc1,"inconclusive: 9.2 µM [rising, partial curve]",
Cc1onc(-c2ccccc2Cl)c1C(=O)Nc1ccc(S(=O)(=O)NCC2CCCO2)cc1 (stereo not given),,inactive: 2.44%
CCc1cccc(NS(=O)(=O)c2ccc3c(c2)CC(C)N3C(=O)C2CC2)c1 (stereo not given),"inconclusive: 6.51 µM [cytotoxic, partial curve]",
COc1ccnc(CSC(N)=Nc2ccc(F)cc2)c1,"inconclusive: 23.1 µM [cytotoxic, single point]",
c1ccc(-c2ccc(-c3ccccn3)s2)nc1,"inconclusive: 29.1 µM [rising, single point]",
CCN=C1S/C(=C\c2cn(CC(=O)NCc3ccco3)c3ccccc23)C(=O)N1CC,"inconclusive: 18.4 µM [cytotoxic, single point]",
CNC(=S)N(Cc1ccc(OC)cc1)C1CC(=O)N(c2ccc(Cl)cc2)C1=O (stereo not given),"inconclusive: 29.1 µM [cytotoxic, single point]",
Cc1cc(/C=C(/C#N)c2nc3ccccc3[nH]2)c(C)n1-c1cccc([N+](=O)[O-])c1,"inconclusive: 29.1 µM [cytotoxic, single point]",
COc1cccc2oc3ccc(C#Cc4ccccn4)cc3c(=O)c12,"inconclusive: 16.4 µM [cytotoxic, single point]",
CC1CCN(S(=O)(=O)c2ccc(C(=O)Nc3nnc(C4CC4)o3)cc2)CC1,"inconclusive: 10.3 µM [cytotoxic, partial curve]",
N#CC1=C(N)Nc2nc3ccccc3n2C1c1ccc(Cl)cc1 (stereo not given),"inconclusive: 0.0015 µM [cytotoxic, full curve, poor fit]",
Cc1ccc(CN(C(=O)COc2ccccc2Cl)c2ccccn2)o1,,inactive: -6.08%
O=C(CNCCC1=CCCCC1)Nc1ccc(N2CCCCCC2)cc1,"inconclusive: 29.1 µM [cytotoxic, single point]",
COc1ccc(OC)c(CNC(=O)Nc2cn(CC(C)C)c(=O)c3ccccc23)c1,,inactive: 0%
Cn1cccc1/C=C1/SC(=S)N(CC(=O)O)C1=O,"inconclusive: 29.1 µM [cytotoxic, single point]",
CC(C)(C)Nc1ncnc2sc(-c3ccccc3)cc12,"inconclusive: 32.6 µM [cytotoxic, single point]",
Cc1ccc(C(=O)NC(=S)N2CCN(c3ccc([N+](=O)[O-])cc3)CC2)cc1,,inactive: -10.4%
CCOCCn1c(CN2CCN(C)CC2)nc2c1c(=O)n(C)c(=O)n2C,,inactive: -8.29%
O=c1c2cc(N3CCOCC3)ccc2[nH]c(=S)n1CCCN1CCCC1,,inactive: 2.37%

# Compounds listed so far containing a Cl atom, in the order listed:
Structure (SMILES),Potency,"activity change, negative = cytotoxic"
O=C(Nc1ccc(Oc2ccc(Cl)cc2)c(Cl)c1)c1cc(I)cc(I)c1O,"inconclusive: 29.1 µM [cytotoxic, single point]",
CNC(=O)/C(C#N)=C/c1c(F)cccc1Cl,"inconclusive: 32.6 µM [cytotoxic, single point]",
Cc1ccc(Cl)cc1NC(=O)c1ccccc1OCC(=O)Nc1ccc(Cl)cc1,,inactive: 1.19%
Nc1nc(-c2ccccc2)c(N=Nc2ccccc2Cl)s1,"inconclusive: 29.1 µM [cytotoxic, single point]",
CCCC(=O)NC(c1cccs1)c1cc(Cl)c2cccnc2c1O (stereo not given),"inconclusive: 2.06 µM [cytotoxic, full curve, poor fit]",
Nc1nc(CCl)nc(Nc2cccc3ccccc23)n1,"inconclusive: 29.1 µM [cytotoxic, single point]",
Nc1ccc2nc3c(c(Cl)c2c1)CCCC3,"inconclusive: 29.1 µM [cytotoxic, single point]",
Cc1onc(-c2ccccc2Cl)c1C(=O)Nc1ccc(S(=O)(=O)NCC2CCCO2)cc1 (stereo not given),,inactive: 2.44%
CNC(=S)N(Cc1ccc(OC)cc1)C1CC(=O)N(c2ccc(Cl)cc2)C1=O (stereo not given),"inconclusive: 29.1 µM [cytotoxic, single point]",
N#CC1=C(N)Nc2nc3ccccc3n2C1c1ccc(Cl)cc1 (stereo not given),"inconclusive: 0.0015 µM [cytotoxic, full curve, poor fit]",
Cc1ccc(CN(C(=O)COc2ccccc2Cl)c2ccccn2)o1,,inactive: -6.08%
